For at least one entry, the source does not settle the construct or the ends of the probe. Where a protein sequence is shown, tags need not be part of it.

Consider one sequence from patent US6225451.

This data set relates to T1, CHD1.ZnF3-8 (CHD1 zinc fingers 3 through 8) (Homo sapiens).
T1 sequence (limits assumed): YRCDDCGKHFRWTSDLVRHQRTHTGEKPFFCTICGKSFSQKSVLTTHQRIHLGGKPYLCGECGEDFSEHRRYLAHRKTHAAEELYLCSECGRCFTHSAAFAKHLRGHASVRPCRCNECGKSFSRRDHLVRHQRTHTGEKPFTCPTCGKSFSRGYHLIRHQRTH
As to the kind of experiment: SELEX. Particulars: consensus from selection of random oligonucleotides on GST fusion on sepharose; purified recombinant protein; protein details: N-terminal GST (pGEX-4T-3), E. coli BL21; only the motif is given.

As to “GGGGT (double strand) [CHD1 consensus motif]”, the selection result is “selected”.
